From US20050137807A1, “Method of visualization of the ADME properties of chemical substances” (priority 2003, published 2005)
For at least one compound, name, drawing or mass did not settle the structure.

Experiment: membrane affinity as a measure of the lipophilicity (TRANSIL technology)
Assay type: physicochemical

SMILES: CCC1(c2ccccc2)C(=O)NC(=O)NC1=O [Phenobarbital]
- LogMA: 0.778
